Data as given in PubChem BioAssay AID1508597 (Cure First, 2020)
This is a random part of the about 2,100 reagents, under one of the conditions tested. 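Calls flag viability under 80% in either arm, not effects specific to rucaparib; the reference for percent is not stated.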 The record does not give: the 100% reference.

Assay: 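Genes whose silencing sensitises or protects ovarian cancer cells against rucaparib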 (primary screen)
System: human ovarian carcinoma lines grown from tumours: OCI-P5x (papillary serous) and OCI-C5x (clear cell)
Reagents: siRNA pool against human genes, 1.25 pmol siRNA per well
Time to read-out: 72 h or 96 h, depending on the cell culture
Treatment: rucaparib 20 µM (about IC30) or vehicle, present until read-out
Rucaparib or vehicle: Rucaparib
Cell line: OCI-C5x (clear cell)
Detection: 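Luminescent ATP-based viability assay read 72 or 96 h after transfection, depending on culture, given as normalised percent viability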
Scale: viability, normalised: higher = more viable cells remaining
Rule for the call: 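a well counts as a hit if its normalised viability is under 80 percent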
Meaning of the calls: active = viability under 80%; inactive = viability 80% or more

ROCK2 (GeneID 9475) [SID405527712], technical replicate 1
- viability, normalised (%): 52.8
- call: active

ROCK2 (GeneID 9475) [SID405527712], technical replicate 2
- viability, normalised (%): 45.2
- call: active

ROCK2 (GeneID 9475) [SID405527712], technical replicate 3
- viability, normalised (%): 46.3
- call: active

DPF1 (GeneID 8193) [SID405528239], technical replicate 1
- viability, normalised (%): 56.4
- call: active

DPF1 (GeneID 8193) [SID405528239], technical replicate 2
- viability, normalised (%): 50.7
- call: active

DPF1 (GeneID 8193) [SID405528239], technical replicate 3
- viability, normalised (%): 42.9
- call: active

HIPK1 (GeneID 204851) [SID405527680], technical replicate 1
- viability, normalised (%): 60.7
- call: active

HIPK1 (GeneID 204851) [SID405527680], technical replicate 2
- viability, normalised (%): 58.3
- call: active

HIPK1 (GeneID 204851) [SID405527680], technical replicate 3
- viability, normalised (%): 60.7
- call: active

MBD5 (GeneID 55777) [SID405526973], technical replicate 1
- viability, normalised (%): 48.5
- call: active

MBD5 (GeneID 55777) [SID405526973], technical replicate 2
- viability, normalised (%): 36.3
- call: active

MBD5 (GeneID 55777) [SID405526973], technical replicate 3
- viability, normalised (%): 46.9
- call: active

PARP12 (GeneID 64761) [SID405527107], technical replicate 1
- viability, normalised (%): 38
- call: active

PARP12 (GeneID 64761) [SID405527107], technical replicate 2
- viability, normalised (%): 31.6
- call: active

PARP12 (GeneID 64761) [SID405527107], technical replicate 3
- viability, normalised (%): 40.7
- call: active

JADE2 (GeneID 23338) [SID405527144], technical replicate 1
- viability, normalised (%): 25.6
- call: active

JADE2 (GeneID 23338) [SID405527144], technical replicate 2
- viability, normalised (%): 21.7
- call: active

JADE2 (GeneID 23338) [SID405527144], technical replicate 3
- viability, normalised (%): 24
- call: active

5 entries already listed, arranged by “viability, normalised (%)”, low to high.
JADE2 (GeneID 23338) [SID405527144], technical replicate 2
- viability, normalised (%): 21.7
- call: active

JADE2 (GeneID 23338) [SID405527144], technical replicate 3
- viability, normalised (%): 24
- call: active

JADE2 (GeneID 23338) [SID405527144], technical replicate 1
- viability, normalised (%): 25.6
- call: active

PARP12 (GeneID 64761) [SID405527107], technical replicate 2
- viability, normalised (%): 31.6
- call: active

PARP12 (GeneID 64761) [SID405527107], technical replicate 3
- viability, normalised (%): 40.7
- call: active

Continued.
DGKI (GeneID 9162) [SID405527894], technical replicate 1
- viability, normalised (%): 58.3
- call: active

DGKI (GeneID 9162) [SID405527894], technical replicate 2
- viability, normalised (%): 50.7
- call: active

DGKI (GeneID 9162) [SID405527894], technical replicate 3
- viability, normalised (%): 43.8
- call: active

MVK (GeneID 4598) [SID405527432], technical replicate 1
- viability, normalised (%): 41.3
- call: active

MVK (GeneID 4598) [SID405527432], technical replicate 2
- viability, normalised (%): 47
- call: active

MVK (GeneID 4598) [SID405527432], technical replicate 3
- viability, normalised (%): 38
- call: active

DPH7 (GeneID 92715) [SID405526625], technical replicate 1
- viability, normalised (%): 52.6
- call: active

DPH7 (GeneID 92715) [SID405526625], technical replicate 2
- viability, normalised (%): 52.7
- call: active

DPH7 (GeneID 92715) [SID405526625], technical replicate 3
- viability, normalised (%): 56.4
- call: active

ALKBH2 (GeneID 121642) [SID405528254], technical replicate 1
- viability, normalised (%): 34.3
- call: active

ALKBH2 (GeneID 121642) [SID405528254], technical replicate 2
- viability, normalised (%): 60.7
- call: active

ALKBH2 (GeneID 121642) [SID405528254], technical replicate 3
- viability, normalised (%): 32.9
- call: active

CDT1 (GeneID 81620) [SID405528087], technical replicate 1
- viability, normalised (%): 49.2
- call: active

CDT1 (GeneID 81620) [SID405528087], technical replicate 2
- viability, normalised (%): 41.2
- call: active

CDT1 (GeneID 81620) [SID405528087], technical replicate 3
- viability, normalised (%): 50.3
- call: active
